Test results taken from PMC11570969.
Results are given in words; binding and its absence hold for the method and conditions named. Binding seen in cells or lysates may run through a third protein. Here binding means that the protein was enriched with, or labelled near, the bait; the list need not be complete.

The chains behind the UniProt entries cited, without tags or fusion partners.
UniProt Q62205: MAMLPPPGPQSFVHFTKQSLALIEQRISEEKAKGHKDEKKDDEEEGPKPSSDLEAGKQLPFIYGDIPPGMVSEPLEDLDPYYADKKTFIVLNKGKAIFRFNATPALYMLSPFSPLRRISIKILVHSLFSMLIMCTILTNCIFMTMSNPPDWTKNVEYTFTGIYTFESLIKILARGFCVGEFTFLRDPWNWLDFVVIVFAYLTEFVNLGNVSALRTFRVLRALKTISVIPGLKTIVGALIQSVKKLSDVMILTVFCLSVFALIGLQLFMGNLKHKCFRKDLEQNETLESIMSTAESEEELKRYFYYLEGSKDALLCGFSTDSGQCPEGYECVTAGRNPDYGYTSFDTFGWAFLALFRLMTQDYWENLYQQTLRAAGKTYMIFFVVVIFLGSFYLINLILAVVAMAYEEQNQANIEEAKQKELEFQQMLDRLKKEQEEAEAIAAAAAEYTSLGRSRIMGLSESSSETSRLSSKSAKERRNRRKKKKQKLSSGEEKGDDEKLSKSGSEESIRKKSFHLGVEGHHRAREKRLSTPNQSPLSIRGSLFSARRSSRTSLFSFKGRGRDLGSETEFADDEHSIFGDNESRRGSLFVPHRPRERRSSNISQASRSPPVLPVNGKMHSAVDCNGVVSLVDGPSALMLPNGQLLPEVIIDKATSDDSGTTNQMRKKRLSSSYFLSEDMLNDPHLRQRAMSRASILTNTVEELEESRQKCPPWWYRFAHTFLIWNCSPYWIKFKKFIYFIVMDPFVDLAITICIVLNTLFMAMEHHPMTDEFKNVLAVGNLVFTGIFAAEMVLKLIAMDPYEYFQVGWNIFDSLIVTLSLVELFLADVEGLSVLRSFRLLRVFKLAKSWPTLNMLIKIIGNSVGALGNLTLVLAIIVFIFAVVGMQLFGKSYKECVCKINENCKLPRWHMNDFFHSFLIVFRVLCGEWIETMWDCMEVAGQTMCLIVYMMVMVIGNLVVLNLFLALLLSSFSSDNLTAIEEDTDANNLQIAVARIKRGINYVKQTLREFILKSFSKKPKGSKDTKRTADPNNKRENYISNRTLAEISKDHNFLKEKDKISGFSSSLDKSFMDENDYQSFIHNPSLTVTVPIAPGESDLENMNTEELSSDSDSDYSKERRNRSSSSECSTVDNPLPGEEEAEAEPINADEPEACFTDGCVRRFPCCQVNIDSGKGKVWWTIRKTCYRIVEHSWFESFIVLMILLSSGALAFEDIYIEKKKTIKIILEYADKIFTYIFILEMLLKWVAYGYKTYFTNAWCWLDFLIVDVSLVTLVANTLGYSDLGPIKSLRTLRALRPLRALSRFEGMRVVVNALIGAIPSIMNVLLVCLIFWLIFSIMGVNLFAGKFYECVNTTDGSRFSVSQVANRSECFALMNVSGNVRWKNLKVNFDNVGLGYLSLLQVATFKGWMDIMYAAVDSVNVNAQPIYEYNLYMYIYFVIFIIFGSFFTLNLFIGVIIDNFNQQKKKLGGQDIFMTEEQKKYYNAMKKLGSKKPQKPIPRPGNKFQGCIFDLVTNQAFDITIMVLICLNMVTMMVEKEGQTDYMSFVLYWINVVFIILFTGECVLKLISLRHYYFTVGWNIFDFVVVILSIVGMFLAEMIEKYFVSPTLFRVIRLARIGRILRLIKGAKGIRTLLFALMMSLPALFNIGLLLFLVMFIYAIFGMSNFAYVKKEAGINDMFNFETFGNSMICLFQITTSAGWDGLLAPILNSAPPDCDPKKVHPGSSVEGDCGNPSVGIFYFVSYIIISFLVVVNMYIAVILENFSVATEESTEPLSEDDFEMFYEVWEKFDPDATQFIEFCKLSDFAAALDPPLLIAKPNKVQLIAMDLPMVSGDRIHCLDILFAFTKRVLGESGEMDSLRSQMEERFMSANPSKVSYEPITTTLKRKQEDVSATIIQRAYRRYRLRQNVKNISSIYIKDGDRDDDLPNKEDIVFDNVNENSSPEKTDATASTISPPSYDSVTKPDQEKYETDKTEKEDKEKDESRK
UniProt B1AWN6: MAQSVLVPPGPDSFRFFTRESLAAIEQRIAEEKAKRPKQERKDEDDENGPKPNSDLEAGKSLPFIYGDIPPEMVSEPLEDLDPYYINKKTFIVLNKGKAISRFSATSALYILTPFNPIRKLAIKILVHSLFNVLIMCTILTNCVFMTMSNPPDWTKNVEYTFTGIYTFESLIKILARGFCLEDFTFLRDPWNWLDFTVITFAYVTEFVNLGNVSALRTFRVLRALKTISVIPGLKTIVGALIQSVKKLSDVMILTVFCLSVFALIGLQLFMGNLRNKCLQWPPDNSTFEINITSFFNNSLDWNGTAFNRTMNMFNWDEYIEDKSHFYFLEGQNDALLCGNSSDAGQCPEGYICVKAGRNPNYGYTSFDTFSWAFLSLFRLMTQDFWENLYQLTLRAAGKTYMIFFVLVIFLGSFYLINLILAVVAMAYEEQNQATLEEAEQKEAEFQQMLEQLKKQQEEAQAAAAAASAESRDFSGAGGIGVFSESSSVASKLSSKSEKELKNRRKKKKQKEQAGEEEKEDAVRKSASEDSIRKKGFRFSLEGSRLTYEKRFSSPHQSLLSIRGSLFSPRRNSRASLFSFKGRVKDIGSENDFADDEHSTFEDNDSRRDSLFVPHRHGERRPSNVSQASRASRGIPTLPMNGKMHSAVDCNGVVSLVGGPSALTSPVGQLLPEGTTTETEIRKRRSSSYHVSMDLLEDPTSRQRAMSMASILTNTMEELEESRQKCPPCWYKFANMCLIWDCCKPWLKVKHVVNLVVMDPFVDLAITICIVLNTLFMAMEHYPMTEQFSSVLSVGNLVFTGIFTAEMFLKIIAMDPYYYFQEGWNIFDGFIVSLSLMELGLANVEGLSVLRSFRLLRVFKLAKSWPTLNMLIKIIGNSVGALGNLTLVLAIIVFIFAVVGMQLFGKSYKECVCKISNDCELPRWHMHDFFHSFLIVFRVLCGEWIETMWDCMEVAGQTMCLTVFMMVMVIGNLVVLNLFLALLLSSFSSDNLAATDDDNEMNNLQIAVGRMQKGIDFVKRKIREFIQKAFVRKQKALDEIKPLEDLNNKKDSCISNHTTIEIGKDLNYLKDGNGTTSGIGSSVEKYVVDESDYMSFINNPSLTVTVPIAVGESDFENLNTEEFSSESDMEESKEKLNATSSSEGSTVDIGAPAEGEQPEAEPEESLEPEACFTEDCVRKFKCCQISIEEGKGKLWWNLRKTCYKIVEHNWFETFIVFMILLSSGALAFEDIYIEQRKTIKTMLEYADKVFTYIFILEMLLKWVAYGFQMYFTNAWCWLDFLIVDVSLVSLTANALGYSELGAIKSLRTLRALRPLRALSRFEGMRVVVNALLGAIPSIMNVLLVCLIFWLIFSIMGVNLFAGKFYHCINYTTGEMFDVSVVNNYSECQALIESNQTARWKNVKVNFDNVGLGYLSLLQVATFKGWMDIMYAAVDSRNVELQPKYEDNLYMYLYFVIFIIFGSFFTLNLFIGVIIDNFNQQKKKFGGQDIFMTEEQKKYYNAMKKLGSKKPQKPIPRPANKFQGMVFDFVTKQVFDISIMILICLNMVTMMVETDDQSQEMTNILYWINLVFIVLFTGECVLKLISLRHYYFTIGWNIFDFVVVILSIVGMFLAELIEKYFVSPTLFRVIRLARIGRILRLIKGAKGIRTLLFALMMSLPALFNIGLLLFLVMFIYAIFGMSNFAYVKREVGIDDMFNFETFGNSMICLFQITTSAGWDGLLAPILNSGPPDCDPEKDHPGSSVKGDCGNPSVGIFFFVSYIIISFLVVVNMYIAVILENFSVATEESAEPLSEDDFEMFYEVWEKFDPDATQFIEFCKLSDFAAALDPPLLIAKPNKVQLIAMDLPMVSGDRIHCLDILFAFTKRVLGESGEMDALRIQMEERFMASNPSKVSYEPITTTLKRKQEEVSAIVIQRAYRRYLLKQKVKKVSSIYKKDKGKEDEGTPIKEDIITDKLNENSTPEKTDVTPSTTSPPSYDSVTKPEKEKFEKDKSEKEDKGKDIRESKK

Molecular target: Epitope-tagged Nav1.7 (TAP-tagged Nav1.7, knock-in mouse) (mouse) (UniProt Q62205)
Assay: affinity purification with mass spectrometry; epitope-tagged (TAP-tagged) Nav1.7 mice; Nav1.7 complexes purified with M2 Magnetic FLAG coupled beads; mass spectrometry of the immunoprecipitates, as described in Kanellopoulos et al., 2018

Sodium channel Nav1.2 (from UniProt B1AWN6 1-2006)
binding: binds
